PubChem BioAssay AID1159578 | Peter MacCallum Cancer Centre | 2015
Shown is one part, drawn at random, of about 18,000 deposited reagents. Over the whole deposit, about 1,030 (5.7%) got an active call. 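Inactive calls also include pools with fewer than 3300 nuclei, whose migration was not assessed.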 Raw values vary from plate to plate and are shown uncorrected. Entries without a mark were called inactive. Reagent sequences are not shown.

- Test: 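siRNA pools altering how lymphatic endothelial cells close a scratch wound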 (primary screen)
- System: human lymphatic endothelial cells
- Reagents: siRNA pool against human genes, 40 nM
- Timing: 48 h after transfection
- Measured: 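High-content imaging of dye-stained cells in a scratch assay measures filled wound area and nuclei per well; duplicate means given as ratio to mock and robust z-score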
- Reading the numbers: migration robust z-score: higher = faster migration into the scratch; migration relative to mock: higher = more scratch area covered than mock; nuclei per well: higher = more cells in the well
- Rule for the call: 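Pools averaging fewer than 3300 nuclei are never called; remaining pools count as changed when migration robust z lies outside -2 to 2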
- Calls: active = migration changed; inactive = no migration change, or too few cells

target gene | PubChem SID | migration robust z-score | migration class with cell-count check | migration relative to mock | nuclei per well, duplicate mean
HNRNPA0 | SID255355471 | 0.83 | migration z between -2 and 2; enough cells | 1.1 | 5252
MSANTD1 | SID255365190 | 0.46 | migration z between -2 and 2; enough cells | 1 | 6345
SLC13A2 | SID255354001 | -0.44 | migration z between -2 and 2; enough cells | 0.72 | 3870
TRIM16L | SID255363318 | 1.6 | migration z between -2 and 2; enough cells | 1.3 | 5706
ZNF394 | SID255361202 | 1.33 | migration z between -2 and 2; enough cells | 1.23 | 5740
DDX47 | SID255357557 | -0.13 | migration z between -2 and 2; enough cells | 0.78 | 6772
TMEM106B | SID255358119 | 0.19 | migration z between -2 and 2; enough cells | 0.94 | 6954
TCEAL1 | SID255354201 | 0.75 | migration z between -2 and 2; enough cells | 0.95 | 4634
ZKSCAN4 | SID255365424 | -1.42 | migration z between -2 and 2; enough cells | 0.51 | 5606
UCP2 | SID255353051 | 0.7 | migration z between -2 and 2; enough cells | 0.94 | 4818
TM6SF1 | SID255357917 | -0.16 | migration z between -2 and 2; enough cells | 0.84 | 6468
OXER1 | SID255363823 | 0.7 | migration z between -2 and 2; enough cells | 0.94 | 5855
ATP12A | SID255348444 | 1.64 | migration z between -2 and 2; enough cells | 1.12 | 7148
ABCB9 | SID255356253 | 0.76 | migration z between -2 and 2; enough cells | 0.95 | 5210
STARD10 | SID255355369 | -0.3 | migration z between -2 and 2; enough cells | 0.8 | 7450
RNF123 | SID255359756 | 0.44 | migration z between -2 and 2; enough cells | 0.89 | 6854
PTPRH | SID255351962 | -1.77 | migration z between -2 and 2; enough cells | 0.46 | 6396
CDH24 | SID255359917 | 1.36 | migration z between -2 and 2; enough cells | 1.24 | 6110
KCNA3 | SID255350587 | 0.34 | migration z between -2 and 2; enough cells | 0.87 | 7181
RRP1 | SID255353656 | -3.1 (active) | migration z below -2; enough cells | 0.08 | 5628
IL3RA | SID255350453 | -0.52 | migration z between -2 and 2; enough cells | 0.7 | 6938
TAAR5 | SID255353983 | -0.75 | migration z between -2 and 2; enough cells | 0.66 | 5678
CYP2C8 | SID255349202 | -1.4 | migration z between -2 and 2; enough cells | 0.54 | 5722
PINK1 | SID255360076 | -0.78 | migration z between -2 and 2; enough cells | 0.66 | 3896
C14orf181 (retired record) | SID318171904 | 0.53 | migration z between -2 and 2; enough cells | 1.02 | 4790
EPHA6 | SID255364832 | -2.36 (active) | migration z below -2; enough cells | 0.35 | 4648
RPL26 | SID255352183 | -3.29 | under 3300 nuclei; migration not judged | 0.04 | 1831
POU6F2 | SID255355734 | 0.8 | migration z between -2 and 2; enough cells | 1.1 | 4740
SRPX2 | SID255357005 | -1.19 | migration z between -2 and 2; enough cells | 0.58 | 6837
LGALS14 | SID255359140 | -1.38 | migration z between -2 and 2; enough cells | 0.53 | 6527
SP100 | SID255352585 | -0.59 | migration z between -2 and 2; enough cells | 0.73 | 4642
ANKRD36B | SID255359582 | 0.14 | migration z between -2 and 2; enough cells | 0.92 | 5580
HES3 | SID255365672 | 0.64 | migration z between -2 and 2; enough cells | 1.05 | 6002
OR5K2 | SID255365815 | 0.94 | migration z between -2 and 2; enough cells | 1.13 | 5402
CCDC122 | SID255363714 | 0.14 | migration z between -2 and 2; enough cells | 0.92 | 5415
COMMD9 | SID255357138 | -1.62 | migration z between -2 and 2; enough cells | 0.47 | 3710
COMMD9 | SID255365727 | 0.02 | migration z between -2 and 2; enough cells | 0.9 | 4906
RAMP3 | SID255354951 | -0.52 | migration z between -2 and 2; enough cells | 0.75 | 5792
CPED1 | SID255360604 | 1.56 | migration z between -2 and 2; enough cells | 1.29 | 5312
BUB3 | SID255354099 | -0.94 | migration z between -2 and 2; enough cells | 0.62 | 6042
ZNF117 | SID255357671 | -3.37 | under 3300 nuclei; migration not judged | -0.01 | 2460
KRT80 | SID255363227 | -3.77 (active) | migration z below -2; enough cells | -0.09 | 6152
OAZ1 | SID255351334 | -0.78 | migration z between -2 and 2; enough cells | 0.66 | 5982
ZBTB41 | SID255365307 | 0.74 | migration z between -2 and 2; enough cells | 1.07 | 6836
BGN | SID255348538 | 0.18 | migration z between -2 and 2; enough cells | 0.94 | 5770
FGF23 | SID255353381 | -0.26 | migration z between -2 and 2; enough cells | 0.76 | 4994
SLC12A3 | SID255352486 | -0.18 | migration z between -2 and 2; enough cells | 0.84 | 6483
EEF2 | SID255349439 | 0.76 | migration z between -2 and 2; enough cells | 0.95 | 5922
ERMARD | SID255358856 | 0.75 | migration z between -2 and 2; enough cells | 1.08 | 6120
FAM221B | SID255365697 | -1 | migration z between -2 and 2; enough cells | 0.63 | 4640
SAP18 | SID255354965 | -1.77 | migration z between -2 and 2; enough cells | 0.46 | 6269
ZNF776 | SID255364760 | -0.54 | migration z between -2 and 2; enough cells | 0.74 | 5486
FEN1 | SID255349659 | -1.01 | migration z between -2 and 2; enough cells | 0.61 | 5549
NOL10 | SID255360589 | 0.66 | migration z between -2 and 2; enough cells | 1.06 | 7380
NOBOX | SID255363002 | 0.9 | migration z between -2 and 2; enough cells | 1.12 | 5965
VRK3 | SID255357575 | 0.26 | migration z between -2 and 2; enough cells | 0.86 | 6092
FHL1 | SID255349690 | 1.45 | migration z between -2 and 2; enough cells | 1.27 | 5350

A stretch of the results above, for reference:
target gene | PubChem SID | migration robust z-score | migration class with cell-count check | migration relative to mock | nuclei per well, duplicate mean
CDH24 | SID255359917 | 1.36 | migration z between -2 and 2; enough cells | 1.24 | 6110
KCNA3 | SID255350587 | 0.34 | migration z between -2 and 2; enough cells | 0.87 | 7181
RRP1 | SID255353656 | -3.1 (active) | migration z below -2; enough cells | 0.08 | 5628
IL3RA | SID255350453 | -0.52 | migration z between -2 and 2; enough cells | 0.7 | 6938
TAAR5 | SID255353983 | -0.75 | migration z between -2 and 2; enough cells | 0.66 | 5678
CYP2C8 | SID255349202 | -1.4 | migration z between -2 and 2; enough cells | 0.54 | 5722
